Test results reported in paper PMC4370635.
No constants are given. Whether binding was seen depends on the method and setting. In cells and extracts the contact can be indirect. Some entries that bind do so weakly or less than the wild type. Tags and fused reporters may be left off the sequences shown.

The chains behind the UniProt entries cited, without tags or fusion partners. Where a name states a change or a piece, a line headed by the entry shows the natural chain unless it says otherwise.
UniProt P62330: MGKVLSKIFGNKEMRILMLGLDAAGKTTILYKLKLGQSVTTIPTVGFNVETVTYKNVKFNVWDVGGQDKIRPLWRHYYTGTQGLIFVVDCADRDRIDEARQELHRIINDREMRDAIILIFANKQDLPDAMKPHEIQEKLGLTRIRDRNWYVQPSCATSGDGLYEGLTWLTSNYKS

Target: T1, GST fused with the ARF6-binding domain (LZII, leucine zipper II domain) of human JIP3 (aa 371-507) (human) (UniProt Q9UPT6)
T1 sequence: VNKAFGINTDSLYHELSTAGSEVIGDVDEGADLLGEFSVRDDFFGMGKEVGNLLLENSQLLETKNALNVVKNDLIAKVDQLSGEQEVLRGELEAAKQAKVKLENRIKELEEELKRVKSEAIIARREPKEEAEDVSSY
Assay: pull-down; GST-LZII (37 ug/reaction) incubated with cleared MDA-MB-231 cell lysates for 15 min at 4°C with 0.5% BSA, then glutathione-Sepharose beads for 1 h at 4°C; lysis buffer 50 mM Tris pH 7.4, 137 mM NaCl, 10 mM MgCl2, 10% glycerol, 1% Triton-X100; bound proteins immunoblotted with anti-ARF6 monoclonal antibody; only the target purified

binding: binds weakly
Substance: ARF6T27N (from UniProt P62330 1-175)
